From PubChem BioAssay AID248 (DTP/NCI, 2004)
The list is a part of this screen's results and no random one: it is rich in T/C values a quarter to a half above the control, in often repeated tests (any T/C) and in doses without a T/C. Further doses and runs are listed elsewhere. T/C: endpoint of the treated group in % of that of the vehicle group. Some doses have a count of surviving animals in place of a T/C: the source files T/C as zero there, which appears to mark a toxic dose or a test without result, not a measured value. Some doses without a T/C left all or most animals alive at the check, yet need not have been tolerated: survival well below the control is almost never listed, so the zero probably covers shortened survival too. Survivors were counted at the toxicity check, usually on the fifth day, unless a day is given; later deaths do not show. Schedules are NCI's codes, read here as Q, the interval in days (D) or hours (H), X, the number of doses. Some schedules carry Z or #; the key to these is not given. Where survival is the endpoint, the PubChem record calls one and a half times the control and up active, and a quarter to a half above the control has no call in these data; cut-offs in other NCI protocols can differ. Some doses were run more than once; their values stand side by side, smallest first. Some T/C values are followed by the survivors on the day toxicity was checked, most often the fifth; where none is given, no animal had died by that day.

System: L1210 leukemia ip in BDF1 mice, survival T/C
Test: NCI In Vivo Anticancer Drug Screen. Data for tumor model L1210 Leukemia (intraperitoneal) in B6D2F1 (BDF1) mice
Settings: higher T/C = longer survival

For Oc1cc(CN(CCCl)CCCl)c(O)cc1CN(CCCl)CCCl, the T/C (T/C endpoint: mean survival time, dose: 0.03 mg/kg/injection, schedule: Q03DX006 (ip), vehicle: saline) was 134 % of control, the T/C (T/C endpoint: mean survival time, dose: 0.05 mg/kg/injection, schedule: Q03DX006 (ip), vehicle: saline) was 142 % of control and the T/C (T/C endpoint: mean survival time, dose: 0.06 mg/kg/injection, schedule: Q07DX003 (ip), vehicle: saline) was 128 % of control. The T/C (T/C endpoint: mean survival time, dose: 0.1 mg/kg/injection, schedule: Q03DX006 (ip), vehicle: saline) was 140 % of control, the T/C (T/C endpoint: mean survival time, dose: 0.12 mg/kg/injection, schedule: Q07DX003 (ip), vehicle: saline) was 127 % of control and the T/C (T/C endpoint: mean survival time, dose: 0.12 mg/kg/injection, schedule: Q#A X Z (ip), vehicle: saline) was 136 % of control. For the same molecule, the T/C (T/C endpoint: mean survival time, dose: 0.2 mg/kg/injection, schedule: Q03DX006 (ip), vehicle: saline) was 128 % of control, the T/C (T/C endpoint: mean survival time, dose: 0.25 mg/kg/injection, schedule: Q#A X Z (ip), vehicle: saline) was 136 % of control and the T/C (T/C endpoint: mean survival time, dose: 0.38 mg/kg/injection, schedule: Q03DX006 (ip), vehicle: saline) was 136 % of control. For the same molecule, the T/C (T/C endpoint: mean survival time, dose: 0.5 mg/kg/injection, schedule: Q01DX Z (ip), vehicle: saline) was 138 % of control, the T/C (T/C endpoint: mean survival time, dose: 0.75 mg/kg/injection, schedule: Q03DX006 (ip), vehicle: saline) was 145 % of control and the T/C (T/C endpoint: mean survival time, dose: 1.0 mg/kg/injection, schedule: Q01DX010 (ip), vehicle: saline) was 128 % of control. For the same molecule, the T/C (T/C endpoint: mean survival time, dose: 1.0 mg/kg/injection, schedule: Q01DX Z (ip), vehicle: saline) was 130 % of control, the T/C (T/C endpoint: mean survival time, dose: 1.0 mg/kg/injection, schedule: Q07DX003 (ip), vehicle: saline) was 125 % of control and the T/C (T/C endpoint: mean survival time, dose: 1.0 mg/kg/injection, schedule: Q#A X Z (ip), vehicle: saline) was 127 % of control. For the same molecule, the T/C (T/C endpoint: mean survival time, dose: 1.25 mg/kg/injection, schedule: Q01DX010 (ip), vehicle: saline) was 128 % of control, the T/C (T/C endpoint: mean survival time, dose: 1.5 mg/kg/injection, schedule: Q03DX006 (ip), vehicle: saline) was 127 % of control and the T/C (T/C endpoint: mean survival time, dose: 2.0 mg/kg/injection, schedule: Q01DX010 (ip), vehicle: saline) was 132 % of control. For the same molecule, the T/C (T/C endpoint: mean survival time, dose: 2.0 mg/kg/injection, schedule: Q01DX Z (ip), vehicle: saline) was 129 % of control, the T/C (T/C endpoint: mean survival time, dose: 2.0 mg/kg/injection, schedule: Q07DX003 (ip), vehicle: saline) was 132 % of control [5 of 6 alive] and the T/C (T/C endpoint: mean survival time, dose: 2.0 mg/kg/injection, schedule: Q#A X Z (ip), vehicle: saline) was 131 % of control. The T/C (T/C endpoint: mean survival time, dose: 2.5 mg/kg/injection, schedule: Q01DX009 (ip), vehicle: saline) was 135 % of control, the T/C (T/C endpoint: mean survival time, dose: 2.5 mg/kg/injection, schedule: Q01DX010 (ip), vehicle: saline) was 133 % of control and the T/C (T/C endpoint: mean survival time, dose: 4.0 mg/kg/injection, schedule: Q01DX001 (ip), vehicle: saline) was 145 % of control. The T/C (T/C endpoint: mean survival time, dose: 4.0 mg/kg/injection, schedule: Q01DX Z (ip), vehicle: saline) was 125 % of control, the T/C (T/C endpoint: mean survival time, dose: 4.0 mg/kg/injection, schedule: Q07DX003 (ip), vehicle: saline) was 131 % of control and the T/C (T/C endpoint: mean survival time, dose: 4.0 mg/kg/injection, schedule: Q#A X Z (ip), vehicle: saline) was 135 % of control. The T/C (T/C endpoint: mean survival time, dose: 5.0 mg/kg/injection, schedule: Q01DX009 (ip), vehicle: saline) was 140 % of control, the T/C (T/C endpoint: mean survival time, dose: 6.0 mg/kg/injection, schedule: Q03DX006 (ip), vehicle: saline) was 138 % of control and the T/C (T/C endpoint: mean survival time, dose: 8.0 mg/kg/injection, schedule: Q01DX Z (ip), vehicle: saline) was 129 % of control. For the same molecule, the T/C (T/C endpoint: mean survival time, dose: 8.0 mg/kg/injection, schedule: Q07DX003 (ip), vehicle: saline) was 143 % of control, the T/C (T/C endpoint: mean survival time, dose: 12.0 mg/kg/injection, schedule: Q03DX006 (ip), vehicle: saline) was 138 % of control and the T/C (T/C endpoint: mean survival time, dose: 32.0 mg/kg/injection, schedule: Q01DX001 (ip), vehicle: saline) was 130 % of control. For the same molecule, the survivor count (T/C endpoint: mean survival time, dose: 32.0 mg/kg/injection, schedule: Q01DX006 (iv), vehicle: saline) was 0 of 6, the survivor count (T/C endpoint: mean survival time, dose: 32.0 mg/kg/injection, schedule: Q07DX003 (ip), vehicle: saline) was 4 of 6 and the survivor count (T/C endpoint: mean survival time, dose: 64.0 mg/kg/injection, schedule: Q01DX006 (iv), vehicle: saline) was 0 of 6. For the same molecule, the survivor count (T/C endpoint: mean survival time, dose: 128.0 mg/kg/injection, schedule: Q01DX006 (iv), vehicle: saline) was 0 of 6, the survivor count (T/C endpoint: mean survival time, dose: 128.0 mg/kg/injection, schedule: Q01DX Z (im), vehicle: saline) was 3 of 6 and the survivor count (T/C endpoint: mean survival time, dose: 128.0 mg/kg/injection, schedule: Q01DX Z (oral), vehicle: saline) was 4 of 6. The survivor count (T/C endpoint: mean survival time, dose: 128.0 mg/kg/injection, schedule: Q01DX Z (sc), vehicle: saline) was 3 of 6, the survivor count (T/C endpoint: mean survival time, dose: 128.0 mg/kg/injection, schedule: Q07DX003 (ip), vehicle: saline) was 2 of 6 and the survivor count (T/C endpoint: mean survival time, dose: 256.0 mg/kg/injection, schedule: Q01DX Z (oral), vehicle: saline) was 3 of 6. The survivor count (T/C endpoint: mean survival time, dose: 512.0 mg/kg/injection, schedule: Q01DX001 (ip), vehicle: saline) was 1 of 6, the survivor count (T/C endpoint: mean survival time, dose: 512.0 mg/kg/injection, schedule: Q01DX Z (oral), vehicle: saline) was 2 of 6 and the survivor count (T/C endpoint: mean survival time, dose: 32.0 micrograms/kg/injection, schedule: Q03DX003 (ip), vehicle: saline) was 5 of 6. The survivor count (T/C endpoint: mean survival time, dose: 37.5 micrograms/kg/injection, schedule: Q07DX002 (ip), vehicle: saline) was 6 of 6, the survivor count (T/C endpoint: mean survival time, dose: 62.5 micrograms/kg/injection, schedule: Q03DX003 (ip), vehicle: saline) was 6 of 6 and the survivor count (T/C endpoint: mean survival time, dose: 75.0 micrograms/kg/injection, schedule: Q07DX002 (ip), vehicle: saline) was 2 of 6. For the same molecule, the survivor count (T/C endpoint: mean survival time, dose: 150.0 micrograms/kg/injection, schedule: Q07DX001 (ip), vehicle: saline) was 5 of 6, the survivor count (T/C endpoint: mean survival time, dose: 300.0 micrograms/kg/injection, schedule: Q07DX001 (ip), vehicle: saline) was 1 of 6 and the T/C (T/C endpoint: median survival time, dose: 1.25 mg/kg/injection, schedule: Q01DX009 (ip), vehicle: saline) was 127 % of control. For the same molecule, the T/C (T/C endpoint: median survival time, dose: 2.5 mg/kg/injection, schedule: Q01DX009 (ip), vehicle: saline) was 127 and 128 % of control and the T/C (T/C endpoint: median survival time, dose: 5.0 mg/kg/injection, schedule: Q01DX009 (ip), vehicle: saline) was 142 % of control.

With BrCC(CBr)(CBr)CBr the survivor count (T/C endpoint: mean survival time, dose: 400.0 mg/kg/injection, schedule: Q01DX009 (ip), vehicle: saline) was 5 of 6.

In the case of CC12CC3CC(C)(C1)CC(CN=C(N)CCl)(C3)C2, the survivor count (T/C endpoint: mean survival time, dose: 25.0 mg/kg/injection, schedule: Q01DX009 (ip), vehicle: Klucel (hydroxypropylcellulose) (HPC)) is reported as 2 of 3, the survivor count (T/C endpoint: mean survival time, dose: 50.0 mg/kg/injection, schedule: Q04DX002 (ip), vehicle: Klucel (hydroxypropylcellulose) (HPC)) is reported as 1 of 3 and the survivor count (T/C endpoint: mean survival time, dose: 100.0 mg/kg/injection, schedule: Q04DX002 (ip), vehicle: Klucel (hydroxypropylcellulose) (HPC)) is reported as 0 of 3. The survivor count (T/C endpoint: mean survival time, dose: 200.0 mg/kg/injection, schedule: Q04DX002 (ip), vehicle: Klucel (hydroxypropylcellulose) (HPC)) was 0 of 3 and the survivor count (T/C endpoint: mean survival time, dose: 400.0 mg/kg/injection, schedule: Q04DX002 (ip), vehicle: Klucel (hydroxypropylcellulose) (HPC)) was 0 of 3.

For Cc1cc(=O)c(CCl)n[nH]1, the survivor count (T/C endpoint: mean survival time, dose: 50.0 mg/kg/injection, schedule: Q01DX009 (ip), vehicle: Klucel (hydroxypropylcellulose) (HPC)) was 6 of 6, the survivor count (T/C endpoint: mean survival time, dose: 100.0 mg/kg/injection, schedule: Q01DX009 (ip), vehicle: Klucel (hydroxypropylcellulose) (HPC)) was 0 of 6 and the survivor count (T/C endpoint: mean survival time, dose: 200.0 mg/kg/injection, schedule: Q04DX003 (ip), vehicle: Klucel (hydroxypropylcellulose) (HPC)) was 4 of 6. For the same molecule, the survivor count (T/C endpoint: mean survival time, dose: 400.0 mg/kg/injection, schedule: Q04DX003 (ip), vehicle: Klucel (hydroxypropylcellulose) (HPC)) was 0 of 6.

For NCCCC(N)C(=O)NCCCCCCNCCCCCCNC(=O)C(N)CCCN (configuration not stated), the survivor count (T/C endpoint: mean survival time, dose: 400.0 mg/kg/injection, schedule: Q01DX001 (ip), vehicle: saline) was 0 of 4.

CC1CCC2C(C1)N(C(C)C)OC2(C)C (configuration not stated) was tested, and the survivor count (T/C endpoint: mean survival time, dose: 200.0 mg/kg/injection, schedule: Q01DX009 (ip), vehicle: saline with Tween-80) was 3 of 6 and the survivor count (T/C endpoint: mean survival time, dose: 400.0 mg/kg/injection, schedule: Q04DX003 (ip), vehicle: saline with Tween-80) was 1 of 6.

CC(=O)/C(=C\c1ccc(Cl)c(Cl)c1)C(=O)c1ccccc1 was tested, and the survivor count (T/C endpoint: mean survival time, dose: 400.0 mg/kg/injection, schedule: Q01DX009 (ip), vehicle: other) was 0 of 6.
